In publication doi:10.1101/2023.09.13.557651v1 (biorxiv, 2023):

Test system: RcDT1
Test: inhibition of DHNA prenylation by yeast microsomes, UPLC
Format: biochemical, Rubia cordifolia
Details: DMAPP, Mg2+, inhibitor at same concentration as substrate

| Structure (SMILES) | % activity of control at inhibitor concentration equal to substrate |
| --- | --- |
| Oc1ccc(O)c2ccccc12 [compound 8, 1,4-dihydroxynaphthalene] | 5.7% |
| Oc1ccc2ccccc2c1O [compound 27, 1,2-DHN] | 0% |
